From paper PMC7819943, “Rice protein-binding microarrays: a tool to detect cis-acting elements near promoter regions in rice”
Some of the results follow.

Protein sequences, listed by entry. Tags and fused reporters are not part of them.
UniProt Q0JBA9, entry or part of it: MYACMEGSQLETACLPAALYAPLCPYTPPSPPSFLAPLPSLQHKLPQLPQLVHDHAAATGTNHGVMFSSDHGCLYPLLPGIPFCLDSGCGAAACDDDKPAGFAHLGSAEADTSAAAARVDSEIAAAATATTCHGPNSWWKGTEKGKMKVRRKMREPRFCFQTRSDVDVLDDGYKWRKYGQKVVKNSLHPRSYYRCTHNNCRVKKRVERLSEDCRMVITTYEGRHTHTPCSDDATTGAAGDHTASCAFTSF

target: OsWRKY34 (Oryza sativa, UniProt Q0JBA9 1-250); assay: protein-binding microarray (RPBM); PBS, 2% BSA, 51.3 ng/ul salmon testes DNA, 50 uM zinc acetate, 200 nM TF, 25 C, 1 h; high values mean tight binding; details: protein: recombinant; tags: N-terminal polyhistidine and DsRed monomer fusion (pET32a); label: CyDye5-dUTP incorporated in the synthesized complementary strand; 3' TTTTT single-stranded linker to array surface; dsDNA, one strand shown
Procedure, shortened: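 In PBS with 2% BSA, salmon testes DNA and 50 µM zinc acetate, 200 nM protein was incubated on a custom Agilent array at 25 °C for 1 h and then washed off. The array had been made double-stranded by primer extension with Cy5-dUTP and blocked with 2% BSA. The proteins were transcription factors fused N-terminally to polyhistidine and DsRed, expressed in E. coli BL21-CodonPlus and purified on Ni–NTA. The binding signal is per-feature fluorescence intensity (arbitrary units) from an Axon 4000B scanner.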

Sequence	binding signal
ACTAGGATGCCACGTCAGCGAAACCACCCATATATACTGTCGGAGTCACCTAGTGCAG	8590 fluorescence intensity (a.u.)
TATTAAGCATATGAAATTATCCCGGTTGTTTGTTCTTTGACGGAGTCACCTAGTGCAG	8030 fluorescence intensity (a.u.)
TCCCCTGCTCCCGCGTCATCGTCGCCGCCGCCGCCGCGTCCGGAGTCACCTAGTGCAG	9680 fluorescence intensity (a.u.)
ATAATACGTTAATTTCAAATCACACTGGCTTATTTAAATCCGGAGTCACCTAGTGCAG	9640 fluorescence intensity (a.u.)
GCTTTTCTTCCTCGACAAGGCCGCCTGCACCACCGTCTCCCGGAGTCACCTAGTGCAG	10500 fluorescence intensity (a.u.)
AACGTCGTAGTCTTTTCAATGCTGCACTCTTCTGTTCGGCCGGAGTCACCTAGTGCAG	11100 fluorescence intensity (a.u.)
GGTTCCTGTTTTAGCATTACGATATTTGGGTTGGTTTACTCGGAGTCACCTAGTGCAG	12000 fluorescence intensity (a.u.)
TATTGTATCGCTATCAGCACTGTTTTATTTGGTAGTACAACGGAGTCACCTAGTGCAG	8920 fluorescence intensity (a.u.)
TCTTTTTATCTCCTTAAAATATGTTTGTAGCTGATTTATACGGAGTCACCTAGTGCAG	8380 fluorescence intensity (a.u.)
AAATGCAGGTCTCCTCCTACCTCCGGCGAGCCCTCCGCCGCGGAGTCACCTAGTGCAG	8270 fluorescence intensity (a.u.)
AATTAATTTTGAAGTTGATTTTATGGTTTTTCCTTTTATTCGGAGTCACCTAGTGCAG	9090 fluorescence intensity (a.u.)
AGGGTTCTTTTGTTGTTGCTTCTACTGCTGGCTATTGTGTCGGAGTCACCTAGTGCAG	8250 fluorescence intensity (a.u.)
AATTACTAGTTTCATGGACGGACTCCATATATCCTTTCTTCGGAGTCACCTAGTGCAG	8390 fluorescence intensity (a.u.)
GCCACCTGTCACCATCATAGTCTCCTGCTCTGGTCTCTCCCGGAGTCACCTAGTGCAG	10800 fluorescence intensity (a.u.)
CCTGATGCATCCCTGCTGCCTAGTACTACTTACATACATACGGAGTCACCTAGTGCAG	9680 fluorescence intensity (a.u.)
AATGAGTGCTGTGCTGTCCACATCCATAGTCTGGACATAACGGAGTCACCTAGTGCAG	9940 fluorescence intensity (a.u.)
ACCACTGCATCGATCTGTTGTTCATGCATGCTTTCCTTGACGGAGTCACCTAGTGCAG	9340 fluorescence intensity (a.u.)
GCTGCTTAACTTTGCCCACCGGCCACCGTTCAGGGGCCATCGGAGTCACCTAGTGCAG	8080 fluorescence intensity (a.u.)
GGTTTGAATACACCCTTCGTTTTCGTTTTTTGTTTTTTTTCGGAGTCACCTAGTGCAG	14000 fluorescence intensity (a.u.)
ACACACACATTCATGCACACCACTAATGGCTGACAATTACCGGAGTCACCTAGTGCAG	9000 fluorescence intensity (a.u.)
CAGCTGCGCTTGGTGCTTCTGCTTTTGTAGCACATCATCACGGAGTCACCTAGTGCAG	8380 fluorescence intensity (a.u.)

Sequence	binding signal
TCCCTTCGGTTTTATACTTTTTCGCCCTAATTTCTTCTTCCGGAGTCACCTAGTGCAG	11200 fluorescence intensity (a.u.)
TTGTCTTTCTTGAGAATATTTTTGTTTGCTTGTTGATTTTCGGAGTCACCTAGTGCAG	9450 fluorescence intensity (a.u.)
ACTCAACCCTACACGCGCGTACCTTAATTAACTTGCTAGACGGAGTCACCTAGTGCAG	9020 fluorescence intensity (a.u.)
AGTGATGCTTTTGTTCCACCTAGTAGTGTTAATAATTTGCCGGAGTCACCTAGTGCAG	8680 fluorescence intensity (a.u.)
TTCCAACCTTATGAGTCTCACATTCCCTATCTTCTTCACTCGGAGTCACCTAGTGCAG	8340 fluorescence intensity (a.u.)
TGGGGTGGCGACGACGGATTAAAAGTTGGGTGGCTATTTTCGGAGTCACCTAGTGCAG	9230 fluorescence intensity (a.u.)
TTTGACATATTTTAAGGGGATTTTCTGTCAAATGTTATATCGGAGTCACCTAGTGCAG	8180 fluorescence intensity (a.u.)
GCTTAGCGTGGTTTTTTTTTTTTTTTTGTCGTTTCTGATTCGGAGTCACCTAGTGCAG	9090 fluorescence intensity (a.u.)
TCGCCCTCGACTCCGCTCTCCTGCGCTGCCCGATTTCCATCGGAGTCACCTAGTGCAG	9820 fluorescence intensity (a.u.)
AAGGGGTGTAGCTATATTTATGGCGCCATATTTTTCATCACGGAGTCACCTAGTGCAG	10200 fluorescence intensity (a.u.)
CACTTCACTGATCACTTCTTCCACCCTGCTCGATCACTCCCGGAGTCACCTAGTGCAG	9550 fluorescence intensity (a.u.)
GAGAAGAGATTGCTGACTAGGATTGTTGGCCCCACATTTTCGGAGTCACCTAGTGCAG	8480 fluorescence intensity (a.u.)
GTTGGTGACTCTTAGCTCAGTCGGCTCGTTATGTTTCTGACGGAGTCACCTAGTGCAG	8990 fluorescence intensity (a.u.)
AAATAATTAATGACCTCCTAATATTTCATCATCGTCTTCTCGGAGTCACCTAGTGCAG	9080 fluorescence intensity (a.u.)
AAAATCCTTTTGCAATATTTCATACTACCTTATGGGATATCGGAGTCACCTAGTGCAG	8390 fluorescence intensity (a.u.)
GGCCCAACATAGCATTATCTAACCGGATCTACTACTGTACCGGAGTCACCTAGTGCAG	8140 fluorescence intensity (a.u.)
CGGCAAGTTATCATTTACTCCCTCCGTCCCAAAATATAATCGGAGTCACCTAGTGCAG	8340 fluorescence intensity (a.u.)
AAAATGTTACACCTACTATGTTGTTCCAATTTCTAAATCACGGAGTCACCTAGTGCAG	8730 fluorescence intensity (a.u.)
ACAGCCGGACACCAATCTATTCCTGGGCCCATTTCTACGGCGGAGTCACCTAGTGCAG	8820 fluorescence intensity (a.u.)
ATCAAAACTTTCCTACACACATAAACTTCTAACTTTTCCGCGGAGTCACCTAGTGCAG	8040 fluorescence intensity (a.u.)
CGCCGTCTGCGAGATGCCCTTCGCCACCGTCGCGTCCGACCGGAGTCACCTAGTGCAG	8650 fluorescence intensity (a.u.)

14 entries from above, in CSV form.
Sequence,binding signal
TTTGACATATTTTAAGGGGATTTTCTGTCAAATGTTATATCGGAGTCACCTAGTGCAG,8180 fluorescence intensity (a.u.)
GCTTAGCGTGGTTTTTTTTTTTTTTTTGTCGTTTCTGATTCGGAGTCACCTAGTGCAG,9090 fluorescence intensity (a.u.)
TCGCCCTCGACTCCGCTCTCCTGCGCTGCCCGATTTCCATCGGAGTCACCTAGTGCAG,9820 fluorescence intensity (a.u.)
AAGGGGTGTAGCTATATTTATGGCGCCATATTTTTCATCACGGAGTCACCTAGTGCAG,10200 fluorescence intensity (a.u.)
CACTTCACTGATCACTTCTTCCACCCTGCTCGATCACTCCCGGAGTCACCTAGTGCAG,9550 fluorescence intensity (a.u.)
GAGAAGAGATTGCTGACTAGGATTGTTGGCCCCACATTTTCGGAGTCACCTAGTGCAG,8480 fluorescence intensity (a.u.)
GTTGGTGACTCTTAGCTCAGTCGGCTCGTTATGTTTCTGACGGAGTCACCTAGTGCAG,8990 fluorescence intensity (a.u.)
AAATAATTAATGACCTCCTAATATTTCATCATCGTCTTCTCGGAGTCACCTAGTGCAG,9080 fluorescence intensity (a.u.)
AAAATCCTTTTGCAATATTTCATACTACCTTATGGGATATCGGAGTCACCTAGTGCAG,8390 fluorescence intensity (a.u.)
GGCCCAACATAGCATTATCTAACCGGATCTACTACTGTACCGGAGTCACCTAGTGCAG,8140 fluorescence intensity (a.u.)
CGGCAAGTTATCATTTACTCCCTCCGTCCCAAAATATAATCGGAGTCACCTAGTGCAG,8340 fluorescence intensity (a.u.)
AAAATGTTACACCTACTATGTTGTTCCAATTTCTAAATCACGGAGTCACCTAGTGCAG,8730 fluorescence intensity (a.u.)
ACAGCCGGACACCAATCTATTCCTGGGCCCATTTCTACGGCGGAGTCACCTAGTGCAG,8820 fluorescence intensity (a.u.)
ATCAAAACTTTCCTACACACATAAACTTCTAACTTTTCCGCGGAGTCACCTAGTGCAG,8040 fluorescence intensity (a.u.)

The list continues.

Sequence	binding signal
CCTCCGTCCCATAATATAAGGGATTTTGACTTTTTACTTGCGGAGTCACCTAGTGCAG	10100 fluorescence intensity (a.u.)
CACGCGCCCGGCACGTGCTCATCGTCTTCACTCTCCCAACCGGAGTCACCTAGTGCAG	8100 fluorescence intensity (a.u.)
GTGCGTCTTCTTTTTGCTACCTACCGTGCTAAAGCCAAAACGGAGTCACCTAGTGCAG	9820 fluorescence intensity (a.u.)
GCTCTGTTCCCGCGACAATCCTCATCTTAGATTCCGCTTCCGGAGTCACCTAGTGCAG	12200 fluorescence intensity (a.u.)
TCCCATCTCTCCCGATCTCTCGCCCATTTGCCACTGATCCCGGAGTCACCTAGTGCAG	9820 fluorescence intensity (a.u.)
TGTGATAGGCTTCAATGTTTAATCTCACCATCGATTGTTACGGAGTCACCTAGTGCAG	9500 fluorescence intensity (a.u.)
TTCTGTTCCATTTCCCATTCATCGCGCGTCGTCTCCACCTCGGAGTCACCTAGTGCAG	13400 fluorescence intensity (a.u.)
ATTTGGGCCTCTCAACCGCTCATCCGTCCATTCGGCCCAACGGAGTCACCTAGTGCAG	8220 fluorescence intensity (a.u.)
ATATCGAAATTGATGCTTGACCAGTCAACACTACTTAATCCGGAGTCACCTAGTGCAG	9070 fluorescence intensity (a.u.)
TTCGGTTTGGATCCGGTTTGTTCCACCCTTGTTCGACGGTCGGAGTCACCTAGTGCAG	11100 fluorescence intensity (a.u.)
CACTTTGCTCGTCGTCCGTGGTGGAGGCGCGGTGGGGTGGCGGAGTCACCTAGTGCAG	12700 fluorescence intensity (a.u.)
GTATTACCGAAATTTGATAGTGTTGGTTTTGTTTGGACTTCGGAGTCACCTAGTGCAG	8590 fluorescence intensity (a.u.)
TGGGCATTGTTTTTCTCATTTTCTTTTTCAGTGGCACTCACGGAGTCACCTAGTGCAG	13000 fluorescence intensity (a.u.)
GCACTCTCTCTCGATCGTCTCTCGTCTCACCCTGAAGCCGCGGAGTCACCTAGTGCAG	10500 fluorescence intensity (a.u.)
GATTGGATTGGATTGTTTTGCTGGCTCGCTCTCTCTCTCTCGGAGTCACCTAGTGCAG	10200 fluorescence intensity (a.u.)
CTTATATAAAAGTCCTTGTCTCCAGTCTCTCTTACCTTAACGGAGTCACCTAGTGCAG	8690 fluorescence intensity (a.u.)
CGCTTCCATCTCTCTCTGTCTCTCTTCTTTTTGACCTCTTCGGAGTCACCTAGTGCAG	11900 fluorescence intensity (a.u.)
CTGCCTATTTATATACAATCCTACATGCTGTAGGAATCGCCGGAGTCACCTAGTGCAG	8460 fluorescence intensity (a.u.)
CCTTCACCTCCTTGCAAGTTCCATTCTTTCATCTCGCTTCCGGAGTCACCTAGTGCAG	16500 fluorescence intensity (a.u.)
TTCCACAAACACCTTGCCTGCATGCCATGCCATACCTTCTCGGAGTCACCTAGTGCAG	9900 fluorescence intensity (a.u.)
CTCGGGAATTCGGGTGGTTTGGTTGGGTTTCGTGGAGAATCGGAGTCACCTAGTGCAG	18700 fluorescence intensity (a.u.)

Sequence	binding signal
ACCCCTGGATACAAAGCATGCGCTTCTTTACCTTTGAAAGCGGAGTCACCTAGTGCAG	9300 fluorescence intensity (a.u.)
TCCACTCTCTCCTCTCCTCTCTTGGACTCCACTCGCCCTCCGGAGTCACCTAGTGCAG	8560 fluorescence intensity (a.u.)
GCGGCGACTTTCATCGCTTCACTCGTCATTTTCTCAAGCTCGGAGTCACCTAGTGCAG	9180 fluorescence intensity (a.u.)
AGGTTTTGTAGGGGTGGTGGACTGGGCCACGGCCCATGGGCGGAGTCACCTAGTGCAG	10400 fluorescence intensity (a.u.)
GCATTACGGTCTAGATGGGTTGTTTAACAGGGTTCATGGCCGGAGTCACCTAGTGCAG	8030 fluorescence intensity (a.u.)
CTCTTTTGTTAGCTACAACACGTGGCCAGCATCGACGTAGCGGAGTCACCTAGTGCAG	8280 fluorescence intensity (a.u.)
GAACGTCTGGACGTTGGAACACTCCATGTTTTTGTCTGATCGGAGTCACCTAGTGCAG	8740 fluorescence intensity (a.u.)
CCTTTCTTTTGACACGGTTTTTCACCCTTACCGCTCTAGTCGGAGTCACCTAGTGCAG	8430 fluorescence intensity (a.u.)
TCCCAGCCGTCCATCTCCTACGTGAGAGCTCCACCGCCACCGGAGTCACCTAGTGCAG	9960 fluorescence intensity (a.u.)
GTGATAAACTCAACGACTGCCACTAACCTCCTCGCGTGCCCGGAGTCACCTAGTGCAG	8480 fluorescence intensity (a.u.)
ATTGAGGTATTTTTTGCAACATCCCTTCGATGGCTATTTCCGGAGTCACCTAGTGCAG	9080 fluorescence intensity (a.u.)
GGGTGAAGGCCACGTGCGTATCGACATGCCTATTTATTCTCGGAGTCACCTAGTGCAG	8340 fluorescence intensity (a.u.)
AATAGTTCTTTTCTCTAAATTTATGATTTTTGACATATTTCGGAGTCACCTAGTGCAG	8020 fluorescence intensity (a.u.)
GTATTTGGGCCTCGTAACTCAGGTTGGAACACCTACTCATCGGAGTCACCTAGTGCAG	10700 fluorescence intensity (a.u.)
TCTCCCAGGCCACCATCGGCGTCCACATCCCGCCGTCCGCCGGAGTCACCTAGTGCAG	8470 fluorescence intensity (a.u.)
GAGCCGAGCCAAACCTTGCTAGCCGGGGAGGGGTAGTTTTCGGAGTCACCTAGTGCAG	10500 fluorescence intensity (a.u.)
AGAGGTGGAGGAAGTGGGTTAGTGGGTCCCACTATTTTTTCGGAGTCACCTAGTGCAG	9680 fluorescence intensity (a.u.)
TTAGAGAGTGGCATATCGTCCCTTTTCTCGATCTGCACCACGGAGTCACCTAGTGCAG	8580 fluorescence intensity (a.u.)
CTTCGTTTCTCGTCTTCGCCGGCGGCCGCCGCATTTCTGACGGAGTCACCTAGTGCAG	8580 fluorescence intensity (a.u.)
AGCAAAATGCAGGCAGGGTCTCATCTTTTCACTTATATTTCGGAGTCACCTAGTGCAG	8950 fluorescence intensity (a.u.)
AGAGGCTAGTGTTTGAGGGAGGGGAAGGGGATGAGAGGAGCGGAGTCACCTAGTGCAG	10200 fluorescence intensity (a.u.)
